Screen size: about 400,000 compounds; about 5,500 (1.4%) were called active. This list was built around the results that the source calls inconclusive (neither active nor inactive); the mix of calls is not that of the screen. Calls follow the shape of the dose curve; as a rule, active = well fitted cell-killing curve with a large enough effect; inconclusive = small, poorly fitted or top-dose-only effect, or effect the other way; inactive = flat fitted curve, though single readings scatter. Potencies beside an inconclusive call are fits to weak or partial responses and may not hold up.
assay: qHTS assay for MDR1-selective chemotherapeutics: Primary screen using the parental adenocarcinoma cell KB-3-1; settings: KB-3-1 viability, CellTiter-Glo ATP luminescence, 72 h; activity change, negative = cytotoxic: at 46.1 µM (top of the series); also: nearly all actives have a fitted effect of over 60% in size
Procedure, shortened: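 Multi-concentration cytotoxicity screen in KB-3-1 cells grown in DMEM lacking phenol red with 10% FBS. After 72 h at 37 °C with compound, ATP-dependent luminescence was recorded.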
% is scaled to controls: 0 for no effect and ±100 for the full control effect; potency is read from the fitted curve at half-maximal effect.

Row | SMILES | Potency | activity change, negative = cytotoxic
1 | COC(=O)c1sccc1NC(=S)Nc1ccc(F)cc1 | inactive | –
2 | Cc1cccc(NC(=O)/C=C/c2ccc([N+](=O)[O-])s2)c1 | active: 5.8 µM | –
3 | Cc1c(C(=O)NCc2cccc(C(F)(F)F)c2)sc(=O)n1Cc1ccc(C(=O)N(C)C)cc1 | inconclusive: 29.1 µM [cytotoxic, single point] | –
4 | NC(=O)c1ccc(OCC(=O)N2CCNC2=O)cc1 | inactive | –
5 | Cc1nnc(SC(C)C(=O)Nc2ncc(Cl)cc2Cl)n1Cc1ccccc1 (stereo not given) | – | inconclusive: -7.84%
6 | O=C(Nc1cccc2nsnc12)c1cc2c(cc1Cl)Sc1nccn1S2(=O)=O | inconclusive: 18.4 µM [rising, partial curve, poor fit] | –
7 | CCN(CC)c1ccc(N=Nc2ncn[nH]2)cc1 | – | inconclusive: 8.63%
8 | COc1ccc(-c2cc(C(=O)N(C)Cc3ccccc3F)c3ccccc3n2)cc1OC | inactive | –
9 | CCCn1c(N)c(C(=O)COC(=O)/C=C/c2ccc(OC(F)F)c(OC)c2)c(=O)[nH]c1=O | inconclusive: 18.4 µM [rising, single point] | –
10 | O=S1(=O)C=C(SCc2ccccc2)Nc2ccccc21 | inconclusive: 29.1 µM [cytotoxic, single point] | –
11 | Cc1c2cnn(CC(=O)N3CCCCC3)c(=O)c2c(C)n1Cc1ccc(Cl)cc1 | inconclusive: 16.4 µM [cytotoxic, partial curve] | –
12 | O=C(/C=C/c1ccccc1)c1ccc2c3c(cccc13)CC2 | inconclusive: 29.1 µM [cytotoxic, single point] | –
13 | Cc1cc(C(=O)C(C)OC(=O)c2cnccn2)c(C)n1-c1ccccc1 (stereo not given) | inconclusive: 16.4 µM [cytotoxic, single point] | –
14 | CCc1c(C)nc2c(-c3ccccc3)c[nH]n2c1=O | inconclusive: 18.4 µM [cytotoxic, single point] | –
15 | O=C(Nc1ccc(Cl)cc1)c1cc(S(=O)(=O)Nc2ccccn2)ccc1Cl | – | inconclusive: -2.65%
16 | Cc1cc(-c2cccs2)c2c(N)c(C(=O)c3ccc4c(c3)OCO4)sc2n1 | inconclusive: 29.1 µM [cytotoxic, single point] | –
17 | Cc1c(Cl)cccc1NC(=O)C(=O)NCCc1csc(-c2cccc(F)c2)n1 | inactive | –
18 | CCCCN(C)/C=N/c1c(C#N)cnn1-c1ccc(C)cc1 | inconclusive: 18.4 µM [cytotoxic, single point] | –
19 | CCC(=O)NC(c1ccc(Cl)cc1Cl)c1ccc2cccnc2c1O (stereo not given) | inconclusive: 0.517 µM [cytotoxic, full curve] | –
20 | Nc1nc(N2CCN(Cc3ccccc3)CC2)n[nH]1 | inactive | –

Of the compounds above, these contain an NH in an aromatic ring:
Row | SMILES | Potency | activity change, negative = cytotoxic
7 | CCN(CC)c1ccc(N=Nc2ncn[nH]2)cc1 | – | inconclusive: 8.63%
9 | CCCn1c(N)c(C(=O)COC(=O)/C=C/c2ccc(OC(F)F)c(OC)c2)c(=O)[nH]c1=O | inconclusive: 18.4 µM [rising, single point] | –
14 | CCc1c(C)nc2c(-c3ccccc3)c[nH]n2c1=O | inconclusive: 18.4 µM [cytotoxic, single point] | –
20 | Nc1nc(N2CCN(Cc3ccccc3)CC2)n[nH]1 | inactive | –

Reference: PubChem BioAssay AID1347075 (National Center for Advancing Translational Sciences (NCATS), 2019)
